Literature values, collected in patent US7964636B2, “Synthesis and use of novel inhibitors and inactivators of protein arginine deiminases” (University of South Carolina, priority 2005, dated 2011).
At least one structure is not confirmed: it was looked up by name or label, or the drawing left a doubt.

The chains behind the UniProt entries cited, without tags or fusion partners.
UniProt Q9UM07, whole entry: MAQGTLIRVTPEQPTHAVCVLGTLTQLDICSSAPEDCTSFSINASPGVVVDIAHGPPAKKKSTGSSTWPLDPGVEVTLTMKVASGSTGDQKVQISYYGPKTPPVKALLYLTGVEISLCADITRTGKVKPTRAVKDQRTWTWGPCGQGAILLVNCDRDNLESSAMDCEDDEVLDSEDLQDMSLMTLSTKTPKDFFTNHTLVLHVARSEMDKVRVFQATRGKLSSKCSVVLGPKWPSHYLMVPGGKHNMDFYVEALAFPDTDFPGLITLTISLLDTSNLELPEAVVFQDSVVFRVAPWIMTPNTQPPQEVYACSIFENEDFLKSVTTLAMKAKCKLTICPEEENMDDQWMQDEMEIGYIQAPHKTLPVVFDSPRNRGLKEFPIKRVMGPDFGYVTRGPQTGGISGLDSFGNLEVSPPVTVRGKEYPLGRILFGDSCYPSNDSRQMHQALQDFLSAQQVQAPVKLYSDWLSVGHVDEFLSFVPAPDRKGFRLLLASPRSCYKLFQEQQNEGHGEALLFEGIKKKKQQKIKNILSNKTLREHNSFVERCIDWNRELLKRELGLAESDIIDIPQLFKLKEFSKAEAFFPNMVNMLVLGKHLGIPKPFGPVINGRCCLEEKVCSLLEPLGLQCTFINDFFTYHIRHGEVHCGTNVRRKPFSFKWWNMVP

Target: PAD4 (Homo sapiens, UniProt Q9UM07)
Settings: PAD4 substrate; cited from earlier work

NC(=O)[C@H](CCCN=C(N)N)NC(=O)c1ccccc1 [BAA, N-α-benzoyl Arg amide]
kcat/Km: 11000 M⁻¹ s⁻¹
